# Data as given in PubChem BioAssay AID1224830 (NIAID, 2016)
# Aim: 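Regulators of TLR4 signalling towards TNF-alpha in macrophage-like cells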 (primary screen)
# System: human THP-1 monocytic leukaemia cells, TNF dual-luciferase reporter clone, PMA-differentiated to macrophage-like cells
# Reagent: siRNA pool against human genes, 50 nM
# Time to read-out: LPS for 4 h, given about 3 days after siRNA transfection
# Treatment: bacterial LPS (TLR4 ligand), 10 ng/ml
# Measurement: 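TNF firefly reporter luminescence divided by renilla, normalised to the plate median, then turned into a robust z-score for each replicate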
# Reading the numbers: TNF reporter robust z-score: higher = stronger TNF reporter response to LPS
# Hit rule: 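a well is active when its z-score exceeds 2.8 or falls below -1.5; control wells carry no call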
# Here is a random part of about 18,000 reagents tested. Over the whole deposit, about 2,900 (16%) are marked active. 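Calls are made per well; low scores hint the gene aids the LPS response, high scores that it dampens it.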 Entries without a mark were called inactive. Repeated entries: four replicate wells of each siRNA pool.
target gene,TNF reporter robust z-score
WDR38 (GeneID 401551),3.85 (active)
WDR38 (GeneID 401551),-0.03
WDR38 (GeneID 401551),0.94
WDR38 (GeneID 401551),0.6
SNX13 (GeneID 23161),0.17
SNX13 (GeneID 23161),-0.59
SNX13 (GeneID 23161),-0.46
SNX13 (GeneID 23161),-0.73
ZNF777 (GeneID 27153),1.57
ZNF777 (GeneID 27153),2.38
ZNF777 (GeneID 27153),1.79
ZNF777 (GeneID 27153),1.59
MECR (GeneID 51102),0.57
MECR (GeneID 51102),-0.14
MECR (GeneID 51102),-0.26
MECR (GeneID 51102),0.67
GLIS2 (GeneID 84662),0.06
GLIS2 (GeneID 84662),0.09
GLIS2 (GeneID 84662),-0.14
GLIS2 (GeneID 84662),0.36
SIGLECL1 (GeneID 284369),1.13
SIGLECL1 (GeneID 284369),1.41
SIGLECL1 (GeneID 284369),1.3
SIGLECL1 (GeneID 284369),1.81
SAMD7 (GeneID 344658),-1.3
SAMD7 (GeneID 344658),-1.13
SAMD7 (GeneID 344658),-1.01
SAMD7 (GeneID 344658),-0.73
ACBD3 (GeneID 64746),0.18
ACBD3 (GeneID 64746),-0.16
ACBD3 (GeneID 64746),1.27
ACBD3 (GeneID 64746),0.7
DEFB106A (GeneID 245909),0.15
DEFB106A (GeneID 245909),-0.6
DEFB106A (GeneID 245909),-0.33
DEFB106A (GeneID 245909),0.94
UHRF2 (GeneID 115426),-0.07
UHRF2 (GeneID 115426),0.5
UHRF2 (GeneID 115426),-0.88
UHRF2 (GeneID 115426),-0.78
COX7A1 (GeneID 1346),-0.48
COX7A1 (GeneID 1346),-0.29
COX7A1 (GeneID 1346),-1.06
COX7A1 (GeneID 1346),-0.2
DEF6 (GeneID 50619),0.06
DEF6 (GeneID 50619),0.34
DEF6 (GeneID 50619),-1.07
DEF6 (GeneID 50619),0.46

A stretch of the results above:
target gene,TNF reporter robust z-score
ACBD3 (GeneID 64746),0.18
ACBD3 (GeneID 64746),-0.16
ACBD3 (GeneID 64746),1.27
ACBD3 (GeneID 64746),0.7
DEFB106A (GeneID 245909),0.15
DEFB106A (GeneID 245909),-0.6
DEFB106A (GeneID 245909),-0.33
DEFB106A (GeneID 245909),0.94
UHRF2 (GeneID 115426),-0.07
UHRF2 (GeneID 115426),0.5

The list goes on:
target gene,TNF reporter robust z-score
IFI27L1 (GeneID 122509),-1.13
IFI27L1 (GeneID 122509),-0.32
IFI27L1 (GeneID 122509),0.16
IFI27L1 (GeneID 122509),0.15
SOX15 (GeneID 6665),3.19 (active)
SOX15 (GeneID 6665),3.31 (active)
SOX15 (GeneID 6665),3.62 (active)
SOX15 (GeneID 6665),4.42 (active)
TCEAL2 (GeneID 140597),0
TCEAL2 (GeneID 140597),1.75
TCEAL2 (GeneID 140597),1.53
TCEAL2 (GeneID 140597),2.96 (active)
SNRPC (GeneID 6631),-1.65 (active)
SNRPC (GeneID 6631),-1.46
SNRPC (GeneID 6631),-1.79 (active)
SNRPC (GeneID 6631),-1.31
COMMD7 (GeneID 149951),1.19
COMMD7 (GeneID 149951),-0.52
COMMD7 (GeneID 149951),-0.02
COMMD7 (GeneID 149951),-0.04
MTX1 (GeneID 4580),-0.43
MTX1 (GeneID 4580),-0.54
MTX1 (GeneID 4580),-0.72
MTX1 (GeneID 4580),-0.9
AOC3 (GeneID 8639),1.51
AOC3 (GeneID 8639),2.42
AOC3 (GeneID 8639),1.5
AOC3 (GeneID 8639),1.6
